Reference: US7410966B2, “Use of and some novel imidazopyridines” (AstraZeneca AB, priority 2002, dated 2008)
Some of these results come from one statement about several compounds together.

Molecular target: T1, recombinant human Itk kinase domain fused with GST (Homo sapiens, UniProt Q08881)
T1 construct: recombinant human Itk kinase domain fused with GST (Glutathione S-Transferase); GST (Glutathione S-Transferase); made in house; host or cells: High Five insect cells
T1 sequence (Q08881 363-615 limits assumed): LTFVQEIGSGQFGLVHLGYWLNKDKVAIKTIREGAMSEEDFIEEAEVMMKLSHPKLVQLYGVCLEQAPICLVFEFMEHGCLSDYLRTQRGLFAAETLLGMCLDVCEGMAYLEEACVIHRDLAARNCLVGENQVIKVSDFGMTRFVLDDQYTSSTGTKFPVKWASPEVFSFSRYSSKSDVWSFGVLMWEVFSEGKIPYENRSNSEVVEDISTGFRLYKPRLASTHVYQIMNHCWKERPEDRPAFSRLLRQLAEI
Test: Itk LANCE TRF Assay
Assay type: biochemical
Details: 2 μM biotinylated peptide substrate, 50 μM ATP, 50 minutes RT, read-out: Inhibition of Kinase Itk (IC50 μM)
Experimental: The Itk kinase assay utilized recombinant human Itk kinase domain fused with GST (Glutathione S-Transferase). The protein was expressed in High five insect cells, purified in one step on an affinity chromatography glutathione column and stored in 50 mM Tris/HCl (pH 7.6), 150 mM NaCl, 5% (w/v) mannitol, 1 mM DTT, 30% glycerol at −70° C. The kinase substrate used in the assay was a biotinylated peptide derived from the Src-optimal substrate (Nair et al, J. Med. Chem., 38: 4276, 1995; biotin-AEEEIYGEFEAKKKK).
The assay additions were as follows: Test compounds (or controls; 1 μL in 100% DMSO) were added to black 96-well flat-bottomed plates (Greiner 655076) followed by 20 μL Itk in assay buffer and the reaction was started by adding 20 μL ATP and peptide substrate in assay buffer. The assay buffer constitution during, phosphorylation was: 50 mM HEPES (pH 6.8), 10 mM MgCl2, 0.015% Brij 35, 1 mM DTT, 10% glycerol, 160 ng/well Itk, 2 μM peptide substrate and 50 μM ATP. The assay was stopped after 50 minutes (RT) by adding 150 μL ice-cold Stop solution (50 mM Tris/HCl, pH 7.5, 10 mM EDTA, 0.9% NaCl and 0.1% BSA) together with LANCE reagents (2 nM PT66-Eu^3+, Wallac AD0069 and 5 μg/mL Streptavidin-APC, Wallac AD0059. Both concentrations were final in stopped assay solution). The plates were measured on a Wallac 1420 Victor 2 instrument with TRF settings after 1 h incubation, and the ratio (665 signal/615 signal)*10000 was used to calculate the inhibition values. IC50 values were determined using XLfit.

SMILES | IC50
CN(CC(=O)N(C)C)CC(O)COc1ccc(-c2nc3cc(Br)cnc3[nH]2)cc1 (centres unmarked) [Example 134, N^2-{3-[4-(6-Bromo-3H-imidazo[4,5-b]pyridin-2-yl)phenoxy]-2-hydroxypropyl}-N^1,N^1, N^2-trimethylglycinamide bis(trifluoroacetate)] | < 25 µM
Brc1cnc2[nH]c(-c3ccc(NCc4cnc[nH]4)cc3)nc2c1 [Example 178, N-[4-(6-Bromo-3H-imidazo[4,5-b]pyridin-2-yl)phenyl]-N-(1H-imidazol-5-ylmethyl)amine bis(trifluoroacetate)] | < 25 µM
CN1CCN(CCOc2ccc(-c3nc4cc(Br)cnc4[nH]3)cc2)CC1 [Example 57, 6-Bromo-2-{4-[2-(4-methylpiperazin-1-yl)ethoxy]phenyl}-3H-imidazo[4,5-b]pyridine bis(trifluoroacetate)] | < 25 µM
CN(CCC#N)CC(O)COc1ccc(-c2nc3cc(Br)cnc3[nH]2)cc1 (centres unmarked) [Example 132, 3-[{3-[4-(6-Bromo-3H-imidazo[4,5-b]pyridin-2-yl)phenoxy]-2-hydroxypropyl}(methyl)amino]propanenitrile bis(trifluoroacetate)] | < 25 µM
Clc1cnc2nc(-c3ccc(OCCN4CCOCC4)cc3)[nH]c2c1N1CCc2ccccc21 [Example 217, 6-Chloro-7-(2,3-dihydro-1H-indol-1-yl)-2-{4-[2-(4-morpholinyl)ethoxy]phenyl}-1H-imidazo[4,5-b]pyridine] | < 25 µM
Clc1cccc(CNc2ccc(-c3nc4cc(Br)cnc4[nH]3)cc2)c1 [Example 186, N-[4-(6-Bromo-3H-imidazo[4,5-b]pyridin-2-yl)phenyl]-N-(3-chlorobenzyl)amine bis(trifluoroacetate)] | < 25 µM
Clc1ncc(COc2ccc(-c3nc4cc(Br)cnc4[nH]3)cc2)s1 [Example 4, 6-Bromo-2-{4-[(2-chloro-1,3-thiazol-5-yl)methoxy]phenyl}-3H-imidazo[4,5-b]pyridine] | < 25 µM
Clc1cnc2[nH]c(-c3ccc(OCCN4CCOCC4)cc3)nc2c1Nc1cccnc1 [Example 219, 6-Chloro-2-[4-(2-morpholin-4-ylethoxy)phenyl]-N-pyridin-3-yl-3H-imidazo[4,5-y]pyridin-7-amine] | < 25 µM
CCc1ccccc1Nc1c(Cl)cnc2nc(-c3ccc(OCCN4CCOCC4)cc3)[nH]c12 [Example 216, 6-Chloro-N-(2-ethylphenyl)-2-{4-[2-(4-morpholinyl)ethoxy]phenyl}-1H-imidazo[4,5-b]pyridin-7-amine] | < 25 µM
OC[C@@H](NCCOc1ccc(-c2nc3cc(Br)cnc3[nH]2)cc1)c1ccccc1 [Example 117, (2S)-2-({2-[4-(6-Bromo-3H-imidazo[4,5-b]pyridin-2-yl)phenoxy]ethyl}amino)-2-phenylethanol bis(trifluoroacetate)] | < 25 µM
OCCN1CCN(CCOc2ccc(-c3nc4cc(Br)cnc4[nH]3)cc2)CC1 [Example 111, 2-(4-{2-[4-(6-Bromo-3H-imidazo[4,5-b]pyridin-2-yl)phenoxy]ethyl}piperazin-1-yl)ethanol bis(trifluoroacetate)] | < 25 µM
OC(CNCCN1CCOCC1)COc1ccc(-c2nc3cc(Br)cnc3[nH]2)cc1 (centres unmarked) [Example 154, 1-[4-(6-Bromo-3H-imidazo[4,5-b]pyridin-2-yl)phenoxy]-3-[(2-morpholin-4-ylethyl)amino]propan-2-ol bis(trifluoroacetate)] | < 25 µM
Brc1cnc2[nH]c(-c3ccc(OCCNCc4cccnc4)cc3)nc2c1 [Example 81, N-{2-[4-(6-Bromo-3H-imidazo[4,5-b]pyridin-2-yl)phenoxy]ethyl}-N-(pyridin-3-ylmethyl)amine bis(trifluoroacetate)] | < 25 µM
CN(CCc1ccccc1)CC(O)COc1ccc(-c2nc3cc(Br)cnc3[nH]2)cc1 (centres unmarked) [Example 136, 1-[4-(6-Bromo-3H-imidazo[4,5-b]pyridin-2-yl)phenoxy]-3-[methyl(2-phenylethyl)amino]propan-2-ol bis(trifluoroacetate)] | < 25 µM
